Reference: PubChem BioAssay AID504793 (Drosophila RNAi Screening Center, 2011)
The deposit covers about 23,000 reagents; this is an unselected part of those with a known target gene and a result. In the full data, 62 (0.27%) are marked active. 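Calls come from follow-up tests whose scores are not deposited, so confirmed genes may have low counts here; counts are not normalised per plate.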 Raw values are not corrected between plates. Unmarked entries are inactive. A plus sign joins genes that one reagent is predicted to hit.

Assay: 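Whole-genome screen for parts of the DNA damage checkpoint at G2/M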 (primary screen)
Cells: Drosophila S2R+ cells
Reagent: long dsRNA against Drosophila genes, about 0.25 µg dsRNA per well
Duration: 4 days of dsRNA, then 4 hours of drug before read-out
Treatment: doxorubicin 0.5 µM for 4 hours to cause double-strand breaks, in cells also given a low, harmless dose of dsRNA against nbs to sensitise the assay
Read-out: 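Mitotic index as the number of phospho-histone H3-positive cells in each well following doxorubicin, given as raw counts without normalisation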
Direction: mitotic cells: higher = more cells in mitosis, weaker G2 arrest
Hit rule: 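Genes are called active only when high mitotic counts were reproduced with independent dsRNAs and mitosis was checked for delay without damage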
Meaning of the calls: active = confirmed in follow-up tests; inactive = not confirmed

Gene | dsRNA | mitotic cells, replicate 1
CG4022 | DRSC10395 | 4
CG4022 | DRSC27317 | 7
Tbp (TATA binding protein) | DRSC23111 | 5
Polr3F (RNA polymerase III subunit F) | DRSC15785 | 6
CG13014 | DRSC19533 | 8
CG13014 | DRSC24448 | 9
Cyp317a1 (Cytochrome P450 317a1) | DRSC07366 | 7
Coq9 (Coenzyme Q9) | DRSC22913 | 4
CG3663 | DRSC04402 | 2
CG3663 | DRSC27007 | 6
CG18343 | DRSC06726 | 7
twin | DRSC15259 | 5
twin | DRSC15831 | 5
twin | DRSC21363 | 16
twin | DRSC29620 | 6
Cbl (Cbl proto-oncogene) | DRSC10764 | 9
Cbl (Cbl proto-oncogene) | DRSC11111 | 1
Cbl (Cbl proto-oncogene) | DRSC28169 | 3
CG42240 | DRSC18097 | 8
CG42240 | DRSC30017 | 9
NPFR (Neuropeptide F receptor) | DRSC12173 | 14
nocte (no circadian temperature entrainment) | DRSC18123 | 9
nocte (no circadian temperature entrainment) | DRSC28453 | 5
Hnf4 (Hepatocyte nuclear factor 4) | DRSC03344 | 7
Hnf4 (Hepatocyte nuclear factor 4) | DRSC26864 | 5
nahoda | DRSC03954 | 4
nahoda | DRSC04126 | 8
IP3K1 + hpRNA:CR18854 | DRSC23313 | 8
Vha100-2 (Vacuolar H[+] ATPase 100kD subunit 2) | DRSC14152 | 7
Vha100-2 (Vacuolar H[+] ATPase 100kD subunit 2) | DRSC29227 | 7
stmA (stambha A) | DRSC07593 | 3
stmA (stambha A) | DRSC22179 | 7
FLASH (FLICE-associated huge protein) | DRSC06872 | 12
FLASH (FLICE-associated huge protein) | DRSC26747 | 8
CG9380 | DRSC04549 | 5
CG11839 | DRSC14398 | 6
scw (screw) | DRSC01711 | 4
scw (screw) | DRSC21252 | 3
CG13258 | DRSC02244 | 3
CG14490 | DRSC06461 | 6
CG14490 | DRSC27641 | 7
RhoGAP16F (Rho GTPase activating protein at 16F) | DRSC20025 | 4
CG9673 | DRSC20202 | 4
CG11598 | DRSC14331 | 2
osa | DRSC17022 | 12
eff (effete) | DRSC16940 | 2
eff (effete) | DRSC38383 | 13
CG6972 | DRSC16159 | 9
CG6972 | DRSC29649 | 8
Drl-2 (Derailed 2) | DRSC05393 | 7
Drl-2 (Derailed 2) | DRSC06155 | 6
Drl-2 (Derailed 2) | DRSC06858 | 7
CG9632 | DRSC16528 | 4
Muc96D (Mucin 96D) | DRSC23213 | 6
Muc96D (Mucin 96D) | DRSC28500 | 9
Cow | DRSC13601 | 13
Cow | DRSC14680 | 8
Cow | DRSC29766 | 8
Cpsf73 (Cleavage and polyadenylation specificity factor 73) | DRSC16291 | 8
Cpsf73 (Cleavage and polyadenylation specificity factor 73) | DRSC28954 | 5
Fs(2)Ket (Female sterile (2) Ketel) | DRSC03328 | 7
Fs(2)Ket (Female sterile (2) Ketel) | DRSC23439 | 4
Lap1 | DRSC07454 | 7
robl (roadblock) | DRSC07674 | 12
CG18853 | DRSC06795 | 4
CG12541 | DRSC17839 | 16
CG12541 | DRSC28362 | 3
CG15818 | DRSC02505 | 2
CG15818 | DRSC28515 | 3
CG10462 | DRSC02058 | 6
lncRNA:CR33987 (long non-coding RNA:CR33987) | DRSC26079 | 5
CG10405 | DRSC14238 | 6
Scp1 (Sarcoplasmic calcium-binding protein 1) | DRSC20799 | 13
Scp1 (Sarcoplasmic calcium-binding protein 1) | DRSC20803 | 49
Scp1 (Sarcoplasmic calcium-binding protein 1) | DRSC20806 | 2
